# Experimental data: PubChem BioAssay AID1671190 (National Center for Advancing Translational Sciences (NCATS), 2021)
# By UniProt entry, the sequences of proteins in these tests, tags left out. Where a name states a change or a piece, a line headed by the entry shows the natural chain unless it says otherwise.
# UniProt P18054: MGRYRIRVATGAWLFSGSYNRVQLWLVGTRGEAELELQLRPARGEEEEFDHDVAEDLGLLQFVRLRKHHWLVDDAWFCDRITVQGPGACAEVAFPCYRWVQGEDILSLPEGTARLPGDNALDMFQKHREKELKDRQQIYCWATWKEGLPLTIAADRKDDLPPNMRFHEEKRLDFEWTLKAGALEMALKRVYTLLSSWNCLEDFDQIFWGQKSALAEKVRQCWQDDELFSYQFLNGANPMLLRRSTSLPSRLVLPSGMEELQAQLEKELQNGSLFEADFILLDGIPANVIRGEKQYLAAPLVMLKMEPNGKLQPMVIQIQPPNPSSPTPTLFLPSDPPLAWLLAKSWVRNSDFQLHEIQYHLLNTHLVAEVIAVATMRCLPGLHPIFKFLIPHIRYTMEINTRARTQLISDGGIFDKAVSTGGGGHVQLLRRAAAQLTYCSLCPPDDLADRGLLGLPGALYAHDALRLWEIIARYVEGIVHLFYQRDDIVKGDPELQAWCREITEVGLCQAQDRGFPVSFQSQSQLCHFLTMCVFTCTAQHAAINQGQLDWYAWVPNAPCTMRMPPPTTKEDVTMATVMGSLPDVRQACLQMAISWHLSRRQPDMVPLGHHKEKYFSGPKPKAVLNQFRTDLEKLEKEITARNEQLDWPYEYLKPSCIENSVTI
# “And” between values parts separate entries of the source, which are not always exact repeats. Identical values can stand only once. Out of some 580,000 compounds screened, about 6,100 (1.1%) were called active. Inconclusive results, whose numbers are uncertain, are shown with a selection of clear calls. The call rests on the fitted dose curve; in most records, active means well fitted inhibition curve with a large enough effect; inconclusive means small, poorly fitted or top-dose-only effect, or another doubt; inactive means no such curve, though single readings can be large or run the other way. Potencies beside an inconclusive call are fits to weak or partial responses and may not hold up.
# Biological target: Polyunsaturated fatty acid lipoxygenase ALOX12 (Homo sapiens) (UniProt P18054)
# Test: Primary qHTS assay for inhibitors of human arachidonate 12S-lipoxygenase (ALOX12): Round 2
# Conditions: purified 12hLO, xylenol orange hydroperoxide absorbance; activity change, negative = inhibition: at 108 µM (top of the series) unless noted
# Summary of the method: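 Purified human 12hLO (150 nM final) in 25 mM Hepes, 0.01% Triton X-100, pH 7.0 was preincubated 15 min at room temperature with compound. Then 40 uM arachidonic acid was added, 30 min. Hydroperoxide was read by Fe-XO absorbance ratio 573/405 nm.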
# On the % scale 0 is the no-effect control and ±100 the full control effect; potency means the concentration at half of the fitted maximal effect.
Compound,Potency,"activity change, negative = inhibition"
Cc1ccc(S(=O)(=O)C(CNS(=O)(=O)c2ccc(Cl)cc2)c2cccnc2)cc1 (stereo unspecified),"inconclusive: 39.8 µM [inhibitor, partial curve, poor fit]",
CCOc1ccc(CNc2nc(NCc3ccc(OCC)cc3)n(S(=O)(=O)CC)n2)cc1,"inconclusive: 31.6 µM [inhibitor, partial curve, poor fit]",
CCOC(=O)C1CCN(CC(=O)Nc2cc(S(=O)(=O)N3CCOCC3)ccc2C)CC1,"inconclusive: 1 µM [inhibitor, full curve, poor fit]",
CCc1nc(-c2c3n(c(=O)n(CC(=O)NCCCc4ccccc4)c2=O)CCCC3)no1,,inactive: 34.4%
O=C(c1cccc(N2C(=O)c3ccccc3C2=O)c1)N1CCCCCC1,,inactive: -17.2%
Cc1ccc(NC(=O)C(c2ccc(Cl)cc2)C(C)C)cc1F (stereo unspecified),"inconclusive: 39.8 µM [inhibitor, partial curve]",
CSC1=NSC2=NC(=O)/C(=C/c3coc4ccccc4c3=O)C(=N)N12,"inconclusive: 44.7 µM [inhibitor, partial curve, poor fit]",
COc1cccc(OC)c1C(=O)N1CCN(c2ccccn2)CC1,,inactive: -4.8%
O=C(Nc1ccc(NC(=S)NC(=O)c2cccs2)cc1)c1ccco1,"inconclusive: 17.8 µM [inhibitor, partial curve, poor fit]",
CCCc1n(CC)c2ccccc2[n+]1CC(O)COC1CCCCC1 (stereo unspecified),"inconclusive: 17.8 µM [inhibitor, full curve]",
CC(C)CNc1ncnc2c1cnn2Cc1ccccc1Cl,,inactive: -16.2%
O=C(Nc1ncnc2sc3c(c12)CCCC3)c1ccncc1,,inactive: 4.89%
Cc1ccccc1Cn1c(=N)n(CC(=O)c2ccc([N+](=O)[O-])cc2)c2ccccc21,"inconclusive: 79.4 µM [inhibitor, partial curve, poor fit]",
O=C(c1ccco1)N(CCCN1CCOCC1)c1nc(-c2ccc(F)cc2)cs1,"inconclusive: 56.2 µM [inhibitor, partial curve, poor fit]",
C=CCN(Cc1cccs1)C(=O)Cc1n[nH]c(=O)c2ccccc12,,inactive: 0.713%
O=[N+]([O-])c1cc(S(=O)(=O)N2CCCC2)ccc1O,,inactive: 7.29%
CCN(C(=O)c1cc2c(=O)[nH]c3ccc(C)cc3c2s1)c1ccc(F)cc1,,inactive: -21%
Cc1ccc2c(c1)C(CCN)C(=O)N2Cc1ccccc1 (stereo unspecified),"inconclusive: 112 µM [inhibitor, single point]",
O=C1CC(c2ccc(Cl)cc2)CC(=O)C1CS(=O)(=O)c1ccccc1 (stereo unspecified),active: 35.5 µM,
Nc1nc(SCC(=O)c2ccc([N+](=O)[O-])cc2)n[nH]1,"inconclusive: 50.1 µM [inhibitor, partial curve, poor fit]",
CCC(Sc1nc(N)c(NC(=O)c2ccco2)c(=O)[nH]1)C(=O)O (stereo unspecified),,inactive: -52.6%
O=c1[nH]cnc2c1nc(SCc1ccccc1)n2C1OC(CO)C(O)C1O (stereo unspecified),"inconclusive: 141 µM [inhibitor, partial curve, poor fit]",

Compound,Potency,"activity change, negative = inhibition"
COc1ccc(OC)c(NC(=O)Cn2ccn(-c3ccc(F)cc3)c(=O)c2=O)c1,"inconclusive: 178 µM [inhibitor, partial curve, poor fit]",
O=C(NCC(O)c1ccc(F)c(F)c1)Nc1cccc(Cl)c1Cl (stereo unspecified),"inconclusive: 44.7 µM [inhibitor, partial curve, poor fit]",
Cc1cccc(NC(=O)c2ccccc2NC(=O)CSc2nnc(-c3ccncc3)n2C2CC2)c1,"inconclusive: 112 µM [inhibitor, single point]",
COCCCNCc1c2ccccc2c(Cl)c2ccccc12,"inconclusive: 7.08 µM [inhibitor, full curve]",
CCc1ccc(Nc2nc(N3CCOCC3)nc(N3CCOCC3)n2)cc1,"inconclusive: 5.62 µM [inhibitor, partial curve, poor fit]",
CCOC(=O)C(Cc1ccc(C(F)(F)F)cc1)(NC(C)=O)C(=O)OCC,"inconclusive: 89.1 µM [inhibitor, single point]",
CCCCCOc1ccc(C2C(C(=O)c3ccc(C)o3)=C(O)C(=O)N2c2cc(C)on2)cc1 (stereo unspecified),"inconclusive: 56.2 µM [inhibitor, partial curve, poor fit]",
N#Cc1c(SCC(=O)O)nc(-c2ccccc2)c2c1CCCC2,,inactive: -0.385%
O=C(CN1C(=O)NC(c2ccc(Cl)cc2)C2=C1COC2=O)Nc1ccc2c(c1)CCC2 (stereo unspecified),"inconclusive: 7.08 µM [inhibitor, full curve]",
S=c1[nH]nc(CCCOc2ccc(Cl)cc2Cl)n1CC1CCCO1 (stereo unspecified),"inconclusive: 79.4 µM [inhibitor, partial curve, poor fit]",
Cc1ccc(S(=O)(=O)NCC(=O)OCc2csc(-c3ccccc3)n2)cc1,"inconclusive: 50.1 µM [inhibitor, partial curve, poor fit]",
CCCCC(CC)CNC(=S)Nc1ccc(C)cc1C (stereo unspecified),"inconclusive: 50.1 µM [inhibitor, partial curve, poor fit]",
O=C(O)CCNc1cc(N2CCN(C(=O)c3ccco3)CC2)c2noc3c2c1C(=O)c1ccccc1-3,,inactive: -11.3%
Cc1cc(C(C)(C)C)cc(C)c1S(=O)(=O)N1CC(=O)Nc2ccccc21,"inconclusive: 141 µM [inhibitor, single point]",
O=C(Nc1oc2ccccc2c(=O)c1-c1ccc(F)cc1)c1cccc([N+](=O)[O-])c1,,inactive: 2.18%
Cc1ccc(C)c(/C=C/c2cc(C(=O)O)c3ccccc3n2)c1,"inconclusive: 39.8 µM [inhibitor, partial curve, poor fit]",
O=C(CSc1ccccc1C(=O)O)NC1CCCCCC1,,inactive: 3.83%
COc1cccc(C2CN(c3ccc(F)cc3F)N=C2c2cccs2)c1OC (stereo unspecified),"inconclusive: 31.6 µM [inhibitor, partial curve, poor fit]",
O=C(Nc1ccc(-c2nnc3n2CCCC3)cc1)c1ccccc1F,,inactive: 53.6%
COCC1CN(C(C)=O)CC12CCN(C(=O)C1CNC1)CC2 (stereo unspecified),active: 25.1 µM,
COc1ccc(-c2nnc(C[C@@H]3C[C@@H](C(C)C)[C@H](CN4CCN(CCO)CC4)C=C3C)o2)cc1,"inconclusive: 89.1 µM [inhibitor, partial curve, poor fit]",
COc1ccc(NC(=O)c2cccc(N3C(=O)NC4CC3(C)Oc3ccccc34)c2)cc1 (stereo unspecified),"inconclusive: 70.8 µM [inhibitor, partial curve, poor fit]",

Compound,Potency,"activity change, negative = inhibition"
CC(C)(C)c1cc(C[C@@H]2C[C@H](NS(C)(=O)=O)C2(C)C)no1,"inconclusive: 56.2 µM [inhibitor, full curve]",
Cc1nn2c(=O)cc(COC(=O)c3ccccc3NC(=O)C(C)C)nc2s1,"inconclusive: 56.2 µM [inhibitor, partial curve, poor fit] and inconclusive: 25.1 µM [inhibitor, partial curve, poor fit]",
O=C(CN1CCCC1)Nc1c2c(nc3ccccc13)N(Cc1ccccc1)CC2,"inconclusive: 0.112 µM [inhibitor, full curve, poor fit]",
CCO[C@H]1OC(C(=O)NC2CC2)=C[C@@H](c2ccccc2)[C@@H]1CCCO,,inactive: -6.12%
Cn1c(SCc2cccc(F)c2)nnc1-c1ccccn1,,inactive: -8.92%
COc1ccc(N2CC(C(=O)N3CCN(C(=O)c4ccco4)CC3)CC2=O)cc1 (stereo unspecified),,inactive: 19.9%
CC(C)N1CCc2c(sc(NC(=O)c3ccco3)c2-c2nc3ccccc3s2)C1,"inconclusive: 89.1 µM [inhibitor, partial curve, poor fit]",
CCCn1c2c(c(O)c(C(=O)NCc3ccccc3)c1=O)CCCC2,"inconclusive: 3.98 µM [inhibitor, full curve, poor fit]",
Cc1c(C)n(Cc2ccccc2)c2ccc(C(=O)NCCN3CCOCC3)cc12,"inconclusive: 12.6 µM [inhibitor, full curve, poor fit]",
CCOc1cccc(CNCc2ccncc2)c1,"inconclusive: 3.16 µM [inhibitor, full curve, poor fit]",
Cc1noc2ncnc(N3CCCC(C(=O)NCCC(C)C)C3)c12 (stereo unspecified),,inactive: -5.2%
COc1ccc(S(=O)(=O)N2CCC(c3nnc(-c4ccccc4C)o3)CC2)c(OC)c1,,inactive: 5.72%
COc1ccc(NC(=O)CCn2nc(-c3cccs3)oc2=O)c(OC)c1,,inactive: 24.2%
COC(=O)C1(C)CCc2c(ccc3ccccc23)C1=O (stereo unspecified),,inactive: -6.1%
CCOC(=O)C1C(=O)CC(=O)CC1CC(C)SCC (stereo unspecified),"inconclusive: 39.8 µM [inhibitor, partial curve, poor fit]",
O=C(C=Cc1ccc(/C=C/C(=O)Nc2ccc(C3=NCCN3)cc2)cc1)Nc1ccc(C2=NCCN2)cc1,"inconclusive: 4.85 µM [inhibitor, full curve]",
Cc1ccccc1NS(=O)(=O)c1cc(C(=O)Nc2cccnc2)ccc1C,"inconclusive: 44.7 µM [inhibitor, partial curve, poor fit]",
C(=N/Nc1nccs1)/c1cccnc1,,inactive: -4.35%
CC1(C)OC(=O)C(=CNc2ccccn2)C(=O)O1,"inconclusive: 112 µM [inhibitor, single point]",
Cc1ccc(S(=O)(=O)c2c(Nc3ccccc3)sc(C(=O)c3ccc4c(c3)OCO4)c2N)cc1,"inconclusive: 56.2 µM [inhibitor, partial curve, poor fit]",
O=c1c(-c2ccco2)nc2ccccc2n1/C=C(/c1ccc(C(F)(F)F)cc1)n1c(=O)[nH]c2ccccc21,active: 15.8 µM,
CNC(=O)CSc1nc2cc(S(=O)(=O)Nc3ccccc3OC)ccc2o1,"inconclusive: 44.7 µM [inhibitor, partial curve, poor fit]",
